Consider one molecule from PMC5626701, “Caspase-1 cleaves PPARγ for potentiating the pro-tumor action of TAMs” (Nature Communications, 2017).

Chains of the proteins cited; added tags and fusions are not shown. Residues count along the entry.
UniProt P37231, residues 29-505: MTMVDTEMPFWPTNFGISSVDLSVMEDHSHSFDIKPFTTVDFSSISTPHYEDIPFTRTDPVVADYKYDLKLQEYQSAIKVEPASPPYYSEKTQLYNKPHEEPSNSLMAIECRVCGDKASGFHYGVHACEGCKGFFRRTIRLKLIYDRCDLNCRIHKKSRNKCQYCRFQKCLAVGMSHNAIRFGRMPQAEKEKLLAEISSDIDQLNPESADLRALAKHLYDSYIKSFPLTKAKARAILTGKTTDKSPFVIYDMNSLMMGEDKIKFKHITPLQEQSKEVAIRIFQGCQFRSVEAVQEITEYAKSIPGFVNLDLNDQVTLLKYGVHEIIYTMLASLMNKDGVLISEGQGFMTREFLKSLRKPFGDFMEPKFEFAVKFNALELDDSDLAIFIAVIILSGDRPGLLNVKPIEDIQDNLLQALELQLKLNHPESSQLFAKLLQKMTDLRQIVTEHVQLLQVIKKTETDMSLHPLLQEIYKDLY

The assay concerns the target HA-tagged full-length PPARγ (THP-1) (human) (UniProt P37231). Nature of the assay: co-IP; THP-1 cells transfected with HA-PPARγ or HA-tPPARγΔ64D; extracts precipitated with anti-HA and blotted with anti-MCAD, or precipitated with anti-MCAD and blotted with anti-HA; blots scanned.

No constants are given. Whether binding was seen depends on the method and setting. In cells and extracts the contact can be indirect. Some binding calls cover weakened binding; strength is not graded here.

B1: medium-chain acyl-CoA dehydrogenase (MCAD), endogenous in THP-1 (enzyme, human (endogenous in THP-1), UniProt P11310 26-421, looked up)
chain: KANRQREPGLGFSFEFTEQQKEFQATARKFAREEIIPVAAEYDKTGEYPVPLIRRAWELGLMNTHIPENCGGLGLGTFDACLISEELAYGCTGVQTAIEGNSLGQMPIIIAGNDQQKKKYLGRMTEEPLMCAYCVTEPGAGSDVAGIKTKAEKKGDEYIINGQKMWITNGGKANWYFLLARSDPDPKAPANKAFTGFIVEADTPGIQIGRKELNMGQRCSDTRGIVFEDVKVPKENVLIGDGAGFKVAMGAFDKTRPVVAAGAVGLAQRALDEATKYALERKTFGKLLVEHQAISFMLAEMAMKVELARMSYQRAAWEVDSGRRNTYYASIAKAFAGDIANQLATDAVQILGGNGFNTEYPVEKLMRDAKIYQIYEGTSQIQRLIVAREHIDKYKN
notes: medium-chain acyl-CoA dehydrogenase (MCAD), mitochondrial; detected and precipitated with an anti-MCAD antibody; source: endogenous, THP-1 cell extract
On to B1, for which the binding entry is “binds”.
